The values below come from patent US7585967.

Chains of the proteins cited; added tags and fusions are not shown. Lines headed by an entry give the natural chain unless they say otherwise; changes in a name come on top.
UniProt P52799: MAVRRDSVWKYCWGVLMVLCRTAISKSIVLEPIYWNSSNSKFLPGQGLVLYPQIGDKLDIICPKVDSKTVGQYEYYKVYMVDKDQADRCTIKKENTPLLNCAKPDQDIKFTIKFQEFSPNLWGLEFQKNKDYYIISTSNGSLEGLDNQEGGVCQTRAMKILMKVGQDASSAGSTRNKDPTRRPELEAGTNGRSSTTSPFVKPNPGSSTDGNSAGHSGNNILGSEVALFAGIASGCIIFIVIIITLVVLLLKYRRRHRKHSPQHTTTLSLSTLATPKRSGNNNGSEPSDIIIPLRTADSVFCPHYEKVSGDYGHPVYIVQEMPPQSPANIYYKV

The test deals with ephrin B2 on tumor cells of human Kaposi's sarcoma biopsy sections (human) (UniProt P52799). The experiment in a line: staining of KS biopsy section with AP fusion.

Results are given in words; binding and its absence hold for the method and conditions named. Some entries that bind do so weakly or less than the wild type. Tags and fused reporters may be left off the sequences shown.

B1: B4EC-AP reagent (protein fusion of EphB4 ectodomain with placental alkaline phosphatase) (receptor, not shown: large carriers)
chain: LEETLLNTKLETADLKWVTFPQVDGQWEELSGLDEEQHSVRTYEVCDVQRAPGQAHWLRTGWVPRRGAVHVYATLRFTMLECLSLPRAGRSCKETFTVFYYESDADTATALTPAWMENPYIKVDTVAAEHLTRKRPGAEATGKVNVKTLRLGPLSKAGFYLAFQDQGACMALLSLHLFYKKCAQLTVNLTRFPETVPRELVVPVAGSCVVDAVPAPGPSPSLYCREDGQWAEQPVTGCSCAPGFEAAEGNTKCRACAQGTFKPLSGEGSCQPCPANSHSNTIGSAVCQCRVGYFRARTDPRGAPCTTPPSAPRSVVSRLNGSSLHLEWSAPLESGGREDLTYALRCRECRPGGSCAPCGGDLTFDPGPRDLVEPWVVVRGLRPDFTYTFEVTALNGVSSLATGPVPFEPVNVTTDREVPPAVSDIRVTRSSPSSLSLAWAVPRAPSGAVLDYEVKYHEKGAEGPSSVRFLKTSENRAELRGLKRGASYLVQVRARSEAGYGPFGQEHHSQTQLDESEGWREQLA
For the molecule B1, the binding entry was “binds”.
